Measurements: patent publication US20240101963A1, “SC-BETA CELLS AND COMPOSITIONS AND METHODS FOR GENERATING THE SAME” (President and Fellows of Harvard College, priority 2013, published 2024)
At least one structure is not confirmed: it was looked up by name or label, or the drawing left a doubt.

Test system: SC-β cells
Assay: Insulin secretion of plated SC-β cells treated with anti-diabetic drugs in 2 and 20 mM glucose
Type: cell-based, human
Conditions: SC-β cells treated with drug; trend
Experimental: FIG. 16A is a schematic illustration of the utility of SC-β cells for treating diabetes or screening drugs to improve function or replication. FIG. 16B is a table listing diabetic drugs investigated and their general therapeutic category. FIG. 16C is a graph showing ELISA measurements of secreted human insulin from plated SC-β cells treated with the indicated drugs in 2 and 20 mM glucose. Indicated p values compare the insulin value in 20 mM glucose between the drug and the control. FIG. 16D is an immunofluorescence image of dispersed and plated SC-β cells stained with DAPI (blue), C-peptide (green), and Ki67 (red) without treatment. FIG. 16E is an immunofluorescence image of dispersed and plated SC-β cells stained with DAPI (blue), C-peptide (green), and Ki67 (red) treated with prolactin for 48 hours. […] FIG. 16G is a graph illustrating fasting blood glucose measurements of Akita mice transplanted with SC-β cells (n=6) or PH cells (n=6). *p<0.05 comparing the two cell groups on the same day. FIG. 16H is a graph illustrating blood glucose measurements from progressively diabetic Akita mice transplanted with SC-β cells or PH cells. Measurements were taken before (white bars) and 20 min after (black bars) a glucose injection of mice transplanted 2 weeks prior. Glucose measurements were saturated at 550 mg/dL. *p<0.05 comparing the two cell groups at the same time post glucose injection. […]

CCCCCCCCCCCCCCCC(=O)N[C@@H](CCC(=O)NCCCC[C@H](NC(=O)[C@H](C)NC(=O)[C@H](C)NC(=O)[C@H](CCC(N)=O)NC(=O)CNC(=O)[C@H](CCC(=O)O)NC(=O)[C@H](CC(C)C)NC(=O)[C@H](Cc1ccc(O)cc1)NC(=O)[C@H](CO)NC(=O)[C@H](CO)NC(=O)[C@@H](NC(=O)[C@H](CC(=O)O)NC(=O)[C@H](CO)NC(=O)[C@@H](NC(=O)[C@H](Cc1ccccc1)NC(=O)[C@@H](NC(=O)CNC(=O)[C@H](CCC(=O)O)NC(=O)[C@H](C)NC(=O)[C@@H](N)Cc1cnc[nH]1)[C@@H](C)O)[C@@H](C)O)C(C)C)C(=O)N[C@@H](CCC(=O)O)C(=O)N[C@@H](Cc1ccccc1)C(=O)N[C@H](C(=O)N[C@@H](C)C(=O)N[C@@H](Cc1c[nH]c2ccccc12)C(=O)N[C@@H](CC(C)C)C(=O)N[C@H](C(=O)N[C@@H](CCCNC(=N)N)C(=O)NCC(=O)N[C@@H](CCCNC(=N)N)C(=O)NCC(=O)O)C(C)C)[C@@H](C)CC)C(=O)O [liraglutide]
insulin secretion in vitro following a glucose challenge: increasing insulin secretion
